Laboratory results from PMC13558869.

T1: UltraID_ZFP36L1 (UltraID fused to the N-terminus of ZFP36L1, co-expressed with GFP through P2A) (UniProt Q07352)
T1 sequence: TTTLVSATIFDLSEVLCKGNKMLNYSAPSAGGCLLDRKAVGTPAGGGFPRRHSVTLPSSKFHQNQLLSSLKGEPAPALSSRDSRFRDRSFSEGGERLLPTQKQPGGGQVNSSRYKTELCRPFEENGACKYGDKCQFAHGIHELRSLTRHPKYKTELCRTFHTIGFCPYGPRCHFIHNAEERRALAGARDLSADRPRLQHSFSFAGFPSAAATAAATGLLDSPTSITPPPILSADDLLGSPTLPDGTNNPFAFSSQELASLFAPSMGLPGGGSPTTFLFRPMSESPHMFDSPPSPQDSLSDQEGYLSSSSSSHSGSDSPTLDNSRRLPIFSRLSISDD

T2: ZFP36L1 (human (endogenous in primary T cells)) (UniProt Q07352)
T2 sequence: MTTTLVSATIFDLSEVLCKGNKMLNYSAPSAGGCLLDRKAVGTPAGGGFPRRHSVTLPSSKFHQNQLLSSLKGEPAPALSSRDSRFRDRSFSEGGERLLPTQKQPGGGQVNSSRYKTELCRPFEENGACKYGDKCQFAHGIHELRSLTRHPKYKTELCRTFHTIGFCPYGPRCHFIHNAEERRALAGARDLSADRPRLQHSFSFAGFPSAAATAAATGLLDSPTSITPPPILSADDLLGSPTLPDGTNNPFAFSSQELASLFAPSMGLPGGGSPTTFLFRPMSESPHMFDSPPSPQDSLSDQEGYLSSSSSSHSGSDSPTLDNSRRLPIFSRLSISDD

T3: ZFP36L1 (human (endogenous in primary T cells)), Q07352
T3 chain: T2 sequence

B1: UPF1 (protein, UniProt Q92900 1-1129)
chain: MSVEAYGPSSQTLTFLDTEEAELLGADTQGSEFEFTDFTLPSQTQTPPGGPGGPGGGGAGGPGGAGAGAAAGQLDAQVGPEGILQNGAVDDSVAKTSQLLAELNFEEDEEDTYYTKDLPIHACSYCGIHDPACVVYCNTSKKWFCNGRGNTSGSHIVNHLVRAKCKEVTLHKDGPLGETVLECYNCGCRNVFLLGFIPAKADSVVVLLCRQPCASQSSLKDINWDSSQWQPLIQDRCFLSWLVKIPSEQEQLRARQITAQQINKLEELWKENPSATLEDLEKPGVDEEPQHVLLRYEDAYQYQNIFGPLVKLEADYDKKLKESQTQDNITVRWDLGLNKKRIAYFTLPKTDSGNEDLVIIWLRDMRLMQGDEICLRYKGDLAPLWKGIGHVIKVPDNYGDEIAIELRSSVGAPVEVTHNFQVDFVWKSTSFDRMQSALKTFAVDETSVSGYIYHKLLGHEVEDVIIKCQLPKRFTAQGLPDLNHSQVYAVKTVLQRPLSLIQGPPGTGKTVTSATIVYHLARQGNGPVLVCAPSNIAVDQLTEKIHQTGLKVVRLCAKSREAIDSPVSFLALHNQIRNMDSMPELQKLQQLKDETGELSSADEKRYRALKRTAERELLMNADVICCTCVGAGDPRLAKMQFRSILIDESTQATEPECMVPVVLGAKQLILVGDHCQLGPVVMCKKAAKAGLSQSLFERLVVLGIRPIRLQVQYRMHPALSAFPSNIFYEGSLQNGVTAADRVKKGFDFQWPQPDKPMFFYVTQGQEEIASSGTSYLNRTEAANVEKITTKLLKAGAKPDQIGIITPYEGQRSYLVQYMQFSGSLHTKLYQEVEIASVDAFQGREKDFIILSCVRANEHQGIGFLNDPRRLNVALTRARYGVIIVGNPKALSKQPLWNHLLNYYKEQKVLVEGPLNNLRESLMQFSKPRKLVNTINPGARFMTTAMYDAREAIIPGSVYDRSSQGRPSSMYFQTHDQIGMISAGPSHVAAMNIPIPFNLVMPPMPPPGYFGQANGPAAGRGTPKGKTGRGGRQKNRFGLPGPSQTNLPNSQASQDVASQPFSQGALTQGYISMSQPSQMSQPGLSQPELSQDSYLGDEFKSQIDVALSQDSTYQGERAYQHGGVTGLSQY
B2: GIGYF2, Q6Y7W6 1-1299 (protein)
chain: MAAETQTLNFGPEWLRALSSGGSITSPPLSPALPKYKLADYRYGREEMLALFLKDNKIPSDLLDKEFLPILQEEPLPPLALVPFTEEEQRNFSMSVNSAAVLRLTGRGGGGTVVGAPRGRSSSRGRGRGRGECGFYQRSFDEVEGVFGRGGGREMHRSQSWEERGDRRFEKPGRKDVGRPNFEEGGPTSVGRKHEFIRSESENWRIFREEQNGEDEDGGWRLAGSRRDGERWRPHSPDGPRSAGWREHMERRRRFEFDFRDRDDERGYRRVRSGSGSIDDDRDSLPEWCLEDAEEEMGTFDSSGAFLSLKKVQKEPIPEEQEMDFRPVDEGEECSDSEGSHNEEAKEPDKTNKKEGEKTDRVGVEASEETPQTSSSSARPGTPSDHQSQEASQFERKDEPKTEQTEKAEEETRMENSLPAKVPSRGDEMVADVQQPLSQIPSDTASPLLILPPPVPNPSPTLRPVETPVVGAPGMGSVSTEPDDEEGLKHLEQQAEKMVAYLQDSALDDERLASKLQEHRAKGVSIPLMHEAMQKWYYKDPQGEIQGPFNNQEMAEWFQAGYFTMSLLVKRACDESFQPLGDIMKMWGRVPFSPGPAPPPHMGELDQERLTRQQELTALYQMQHLQYQQFLIQQQYAQVLAQQQKAALSSQQQQQLALLLQQFQTLKMRISDQNIIPSVTRSVSVPDTGSIWELQPTASQPTVWEGGSVWDLPLDTTTPGPALEQLQQLEKAKAAKLEQERREAEMRAKREEEERKRQEELRRQQEEILRRQQEEERKRREEEELARRKQEEALRRQREQEIALRRQREEEERQQQEEALRRLEERRREEEERRKQEELLRKQEEEAAKWAREEEEAQRRLEENRLRMEEEAARLRHEEEERKRKELEVQRQKELMRQRQQQQEALRRLQQQQQQQQLAQMKLPSSSTWGQQSNTTACQSQATLSLAEIQKLEEERERQLREEQRRQQRELMKALQQQQQQQQQKLSGWGNVSKPSGTTKSLLEIQQEEARQMQKQQQQQQQHQQPNRARNNTHSNLHTSIGNSVWGSINTGPPNQWASDLVSSIWSNADTKNSNMGFWDDAVKEVGPRNSTNKNKNNASLSKSVGVSNRQNKKVEEEEKLLKLFQGVNKAQDGFTQWCEQMLHALNTANNLDVPTFVSFLKEVESPYEVHDYIRAYLGDTSEAKEFAKQFLERRAKQKANQQRQQQQLPQQQQQQPPQQPPQQPQQQDSVWGMNHSTLHSVFQTNQSNNQQSNFEAVQSGKKKKKQKMVRADPSLLGFSVNASSERLNMGEIETLDDY

Assays:
[1] = target: T1, UltraID_ZFP36L1 (UltraID fused to the N-terminus of ZFP36L1, co-expressed with GFP through P2A); assay: proximity labelling; UltraID_L1 in retrovirally transduced primary human T cells, rested or re-activated 16 h with αCD3/αCD28, with or without 500 μM biotin; biotinylated proteins captured from lysate on streptavidin beads and identified by MS; controls UltraID_GFP and no biotin; T cell screens 1 and 2 (the network of Fig 3A also draws on the Jurkat screen)
[2] = target: T1, UltraID_ZFP36L1 (UltraID fused to the N-terminus of ZFP36L1, co-expressed with GFP through P2A); assay: proximity labelling; time course: UltraID_L1 T cells re-activated with αCD3/αCD28 for 0, 2, 5, 16 h; biotin added for 2 h, for 3 h (2-5 h) or for 9 h (5-16 h); streptavidin capture, MS; supervised classification into shapes
[3] = target: T2, ZFP36L1 (human (endogenous in primary T cells)); assay: affinity purification with mass spectrometry; Co-IP of endogenous ZFP36L1 with 10 μg anti-ZFP36L1 (1A3) or IgG control on Protein A Dynabeads, 4 h at 4°C, from cytoplasmic (1% digitonin) lysates of αCD3/αCD28-activated human CD3+ T cells at 0, 2, 5, 16 h; lysates untreated or treated with 200 U/ml RNAse A throughout; MS
[4] = target: T3, ZFP36L1 (human (endogenous in primary T …)); assay: as above; conditions: remark: other sources report otherwise

Row | Binder | binding [1] | binding [2] | binding [3] | binding [4]
1 | B1 | binds | binds | binds | –
2 | B2 | – | – | – | no binding

These are yes or no findings as the source states them, for the method shown. In cells and extracts the contact can be indirect. A yes stands for co-enrichment or nearness to the bait. Other partners may have been found. For some of these results: A no says only that the protein was not detected with the bait. For some of these results: Sequences can lack the tags named with a protein.
